Measurements reported in PubChem BioAssay AID602196 (INSERM, 2012)

Screen: 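Knock-downs that protect lung cancer cells from cisplatin or sensitise them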
System: human A549 lung cancer cells
Reagent: siRNA pair against human genes
Duration: 48 h transfection before cisplatin; time from cisplatin to read-out not stated
Conditions: cisplatin at a dose killing half of control-siRNA cells; exact dose and duration not given
Detection: 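Shift in cisplatin death relative to control siRNA, from -50 (all cells die) to +50 (no cells die); siRNAs harmful on their own scored 0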
Reading the numbers: two-siRNA summed score (-2 to +2): higher = both siRNAs protect from cisplatin killing; -2 means both sensitise
Hit rule: 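Each siRNA scores 0 if harmful alone by LDH or WST-1, otherwise +1 if it reduces and -1 if it increases cisplatin killing; a gene is active when both siRNAs agree (sum +2 or -2)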
Meaning of the calls: active = both siRNAs shift cisplatin killing the same way; inactive = no consistent shift, or siRNA harmful alone
This is an unselected part of about 23,000 deposited reagents. Over the whole deposit, 455 (2%) were called active. 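Active includes both protection and sensitisation; some change values fall well beyond the stated -50 to +50 range.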 Not all columns of the deposit are shown. No sequences are given here. Not stated in the record: the amount of reagent.

CTXN1: two-siRNA summed score (-2 to +2) = 0; activity call = inactive
LOC442125: two-siRNA summed score (-2 to +2) = 2; activity call = active
SAXO5: two-siRNA summed score (-2 to +2) = 1; activity call = inactive
SOX9: two-siRNA summed score (-2 to +2) = 1; activity call = inactive
ACTA2: two-siRNA summed score (-2 to +2) = 0; activity call = inactive
LOC441434: two-siRNA summed score (-2 to +2) = -1; activity call = inactive
PVALB: two-siRNA summed score (-2 to +2) = 0; activity call = inactive
CNTNAP1: two-siRNA summed score (-2 to +2) = 0; activity call = inactive
MAP4: two-siRNA summed score (-2 to +2) = 0; activity call = inactive
JUND: two-siRNA summed score (-2 to +2) = -1; activity call = inactive
LOC442261: two-siRNA summed score (-2 to +2) = 1; activity call = inactive
RAPH1: two-siRNA summed score (-2 to +2) = 0; activity call = inactive
LOC441912: two-siRNA summed score (-2 to +2) = 1; activity call = inactive
STEAP4: two-siRNA summed score (-2 to +2) = 0; activity call = inactive
LOC344797: two-siRNA summed score (-2 to +2) = 0; activity call = inactive
NT5DC2: two-siRNA summed score (-2 to +2) = 0; activity call = inactive

Reformatted: entries from further up.
{"Gene": "ACTA2", "two-siRNA summed score (-2 to +2)": 0, "activity call": "inactive"}
{"Gene": "LOC441434", "two-siRNA summed score (-2 to +2)": -1, "activity call": "inactive"}
{"Gene": "PVALB", "two-siRNA summed score (-2 to +2)": 0, "activity call": "inactive"}
{"Gene": "CNTNAP1", "two-siRNA summed score (-2 to +2)": 0, "activity call": "inactive"}
{"Gene": "MAP4", "two-siRNA summed score (-2 to +2)": 0, "activity call": "inactive"}

Further records follow.
BPIFB6: two-siRNA summed score (-2 to +2) = 0; activity call = inactive
LOC389730: two-siRNA summed score (-2 to +2) = 1; activity call = inactive
CDK8: two-siRNA summed score (-2 to +2) = 0; activity call = inactive
GTPBP10: two-siRNA summed score (-2 to +2) = 0; activity call = inactive
TRUB1: two-siRNA summed score (-2 to +2) = 1; activity call = inactive
VCF2: two-siRNA summed score (-2 to +2) = 0; activity call = inactive
PELP1: two-siRNA summed score (-2 to +2) = 0; activity call = inactive
WDR72: two-siRNA summed score (-2 to +2) = 0; activity call = inactive
IRGC: two-siRNA summed score (-2 to +2) = -1; activity call = inactive
TSPAN3: two-siRNA summed score (-2 to +2) = 0; activity call = inactive
SYT14: two-siRNA summed score (-2 to +2) = 1; activity call = inactive
DUX1: two-siRNA summed score (-2 to +2) = -1; activity call = inactive
KIAA0040: two-siRNA summed score (-2 to +2) = 0; activity call = inactive
M1AP: two-siRNA summed score (-2 to +2) = 0; activity call = inactive
PRSS30P: two-siRNA summed score (-2 to +2) = 0; activity call = inactive
